This is an account of results in paper PMC12607708.

Chains of the proteins cited; added tags and fusions are not shown.
UniProt Q14457: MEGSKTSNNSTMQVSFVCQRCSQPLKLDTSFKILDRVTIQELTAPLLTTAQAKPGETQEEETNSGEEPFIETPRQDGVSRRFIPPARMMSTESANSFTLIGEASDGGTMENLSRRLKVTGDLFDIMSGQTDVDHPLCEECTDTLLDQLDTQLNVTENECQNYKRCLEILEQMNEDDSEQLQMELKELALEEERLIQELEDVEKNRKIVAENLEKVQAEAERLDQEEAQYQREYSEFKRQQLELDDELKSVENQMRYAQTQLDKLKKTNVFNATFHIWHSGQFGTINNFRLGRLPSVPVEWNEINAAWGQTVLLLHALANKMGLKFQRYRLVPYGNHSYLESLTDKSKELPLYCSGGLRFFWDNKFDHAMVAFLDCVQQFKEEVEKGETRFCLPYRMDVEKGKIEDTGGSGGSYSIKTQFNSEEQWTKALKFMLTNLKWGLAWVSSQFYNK

These are yes or no findings as the source states them, for the method shown. Binding can be weak; no strength is given.

The experiment has as its target PikA in fusion with the GAL4 DNA-binding domain (Rickettsia rickettsii). Kind of experiment: two-hybrid.

Regarding “Beclin 1 in fusion with the GAL activation domain (from UniProt Q14457 1-450)”, the binding result is reported as “binds”.
